Tested on: ENV421
Assay: Degradation of TAME by propane-oxidizing bacteria
Assay type: cell-based
Details: 7.8 mg/L TAME, room temperature

CCC(C)(C)OC [TAME, tert-amyl methyl ether]
TAME Remaining after 24 hr incubation, Average (grown on 1-Propanol): 0 ppm
TAME Remaining after 24 hr incubation, Sample 1 (grown on 1-Propanol): 0 ppm
TAME Remaining after 24 hr incubation, Sample 2 (grown on 1-Propanol): 0 ppm
TAME Remaining after 24 hr incubation, Sample 3 (grown on 1-Propanol): 0 ppm
TAME Remaining after 24 hr incubation, Average (grown on Ethanol): 4.1 ppm
TAME Remaining after 24 hr incubation, Sample 1 (grown on Ethanol): 4.3 ppm
TAME Remaining after 24 hr incubation, Sample 2 (grown on Ethanol): 4.0 ppm
TAME Remaining after 24 hr incubation, Sample 3 (grown on Ethanol): 3.9 ppm
TAME Remaining after 24 hr incubation, Average (grown on Propane): 0 ppm
TAME Remaining after 24 hr incubation, Sample 1 (grown on Propane): 0 ppm
TAME Remaining after 24 hr incubation, Sample 2 (grown on Propane): 0 ppm
TAME Remaining after 24 hr incubation, Sample 3 (grown on Propane): 0 ppm

Source: US6303366A, “Biodegradation of the gasoline oxygenates” (Envirogen, Inc., priority 1999, dated 2001)
